Results on 3 molecules are retold here after paper PMC8860247.

These are yes or no findings as the source states them, for the method shown. Binding seen in cells or lysates may run through a third protein. Binding can be weak; no strength is given. Tags and fused reporters may be left off the sequences shown.

The target of experiment [1] is mKate2::ERM-1::VN155-HA-V5-InteinN (C. elegans). The experiment in a line: split reporter; SIMPL-mVenus: split intein with split mVenus (VN155 on ERM-1, VC155 on NRFL-1) co-expressed in C. elegans; apical mVenus in intestinal cells imaged by spinning disk microscopy, as ratio over mKate2::ERM-1.
Experiment [2] deals with ERM-1::V5::IN (C. elegans). The experiment can be described thus: split intein-mediated protein ligation (SIMPL); bait fused to V5-IN and prey fused to IC-FLAG co-expressed ubiquitously in C. elegans; spliced high molecular weight band detected by anti-V5 and anti-FLAG western blot of lysates.

B1: NRFL-1a(ΔEB)::InteinC-3xFLAG-VC155 (domain or fragment, UniProt G5EDM4 1-439)
chain: MVHIPSDVTPPRLCVVEKLNGENEYGYNLHAEKGRGQFVGTVDPDSPAERGGLITGDRIFAVNGHSIIGENHKKVVERIKANPNRCEMLVISEEGAKWYNENNVQITLDLPNIERVSPMSKETPVFVPPPPPPTDAMPYLPRLAELNKGTPDQEFGFNLHAERGRGHFIGTVDAGGIGEKAGLEAGQRIVGVNGQLIYPTTGHKEVVALIKKDTMKTTLLVASEDVDKYHKDHNIAYSWDNVERVDTRPVINVETHHHHEEVSVPKSNGYDVPPLNPHSIQVNEEREISKMTTTTRTETITNSNSAYQYKESSTAYDAYATPPVDSNDLMDEVFGRVNLPGVTMSSHTEVLPPTDDISSVSSLSSHRESAVDVPVSHQYVPSYATESHQKHEQHSQTHHHHHQHQQPSPLSNGSSHGYAASSTSGYDDDDIYHLSAREA
With B1, the binding result in experiment [1] is listed as “binds weakly”.

B2: IC-FLAG::NRFL-1 (protein, UniProt G5EDM4 1-467)
chain: MVHIPSDVTPPRLCVVEKLNGENEYGYNLHAEKGRGQFVGTVDPDSPAERGGLITGDRIFAVNGHSIIGENHKKVVERIKANPNRCEMLVISEEGAKWYNENNVQITLDLPNIERVSPMSKETPVFVPPPPPPTDAMPYLPRLAELNKGTPDQEFGFNLHAERGRGHFIGTVDAGGIGEKAGLEAGQRIVGVNGQLIYPTTGHKEVVALIKKDTMKTTLLVASEDVDKYHKDHNIAYSWDNVERVDTRPVINVETHHHHEEVSVPKSNGYDVPPLNPHSIQVNEEREISKMTTTTRTETITNSNSAYQYKESSTAYDAYATPPVDSNDLMDEVFGRVNLPGVTMSSHTEVLPPTDDISSVSSLSSHRESAVDVPVSHQYVPSYATESHQKHEQHSQTHHHHHQHQQPSPLSNGSSHGYAASSTSGYDDDDIYHLSAREARERLRMKNRKHHLHEMSLNEKYQLVSNM
As to B2, the binding entry in experiment [2] is reported as “binds”.

B3: NRFL-1a::InteinC-3xFLAG-VC155 (protein, UniProt G5EDM4 1-467)
chain: MVHIPSDVTPPRLCVVEKLNGENEYGYNLHAEKGRGQFVGTVDPDSPAERGGLITGDRIFAVNGHSIIGENHKKVVERIKANPNRCEMLVISEEGAKWYNENNVQITLDLPNIERVSPMSKETPVFVPPPPPPTDAMPYLPRLAELNKGTPDQEFGFNLHAERGRGHFIGTVDAGGIGEKAGLEAGQRIVGVNGQLIYPTTGHKEVVALIKKDTMKTTLLVASEDVDKYHKDHNIAYSWDNVERVDTRPVINVETHHHHEEVSVPKSNGYDVPPLNPHSIQVNEEREISKMTTTTRTETITNSNSAYQYKESSTAYDAYATPPVDSNDLMDEVFGRVNLPGVTMSSHTEVLPPTDDISSVSSLSSHRESAVDVPVSHQYVPSYATESHQKHEQHSQTHHHHHQHQQPSPLSNGSSHGYAASSTSGYDDDDIYHLSAREARERLRMKNRKHHLHEMSLNEKYQLVSNM
On to B3, for which the binding result in experiment [1] is reported as “binds”.
